# From PubChem BioAssay AID743255 (National Center for Advancing Translational Sciences (NCATS), 2014)
# Protein sequences, listed by entry. Tags and fused reporters are not part of them. Lines headed by an entry give the natural chain unless they say otherwise; changes in a name come on top.
# UniProt O94782: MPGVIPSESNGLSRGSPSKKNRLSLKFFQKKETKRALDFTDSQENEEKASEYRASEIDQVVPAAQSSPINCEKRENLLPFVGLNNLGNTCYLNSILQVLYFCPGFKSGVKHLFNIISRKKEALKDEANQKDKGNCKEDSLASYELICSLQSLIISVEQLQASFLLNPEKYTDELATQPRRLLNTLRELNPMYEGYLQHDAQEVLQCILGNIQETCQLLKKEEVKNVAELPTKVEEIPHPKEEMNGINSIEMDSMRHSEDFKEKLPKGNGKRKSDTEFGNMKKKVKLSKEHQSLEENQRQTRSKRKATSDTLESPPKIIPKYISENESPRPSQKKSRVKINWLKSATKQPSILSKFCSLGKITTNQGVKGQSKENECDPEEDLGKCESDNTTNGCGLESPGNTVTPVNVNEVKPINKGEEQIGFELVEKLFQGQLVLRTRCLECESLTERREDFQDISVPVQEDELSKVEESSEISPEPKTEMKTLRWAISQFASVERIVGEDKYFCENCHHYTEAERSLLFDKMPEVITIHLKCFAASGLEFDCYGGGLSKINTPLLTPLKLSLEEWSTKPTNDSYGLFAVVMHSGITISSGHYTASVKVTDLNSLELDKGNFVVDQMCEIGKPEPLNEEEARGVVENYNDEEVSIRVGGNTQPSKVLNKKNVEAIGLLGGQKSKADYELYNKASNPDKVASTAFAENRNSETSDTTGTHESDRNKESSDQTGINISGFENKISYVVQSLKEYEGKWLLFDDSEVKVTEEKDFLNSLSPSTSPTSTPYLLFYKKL
# In all, about 390,000 compounds went through this assay and about 910 (0.23%) were called active. This list was built around the results that the source calls inconclusive (neither active nor inactive); the mix of calls is not that of the screen. Calls come from the whole dose curve; as a rule, active = well fitted inhibition curve with a large enough effect; inconclusive = small, poorly fitted or top-dose-only effect; inactive = no such curve, though single readings can be large or run the other way. Where the call is inconclusive, the potency comes from a doubtful curve fit.
# Molecular target: Ubiquitin carboxyl-terminal hydrolase 1 (Homo sapiens) (UniProt O94782)
# Assay: Inhibitors of USP1/UAF1: Primary Screen; note: nearly all actives have a fitted effect of over 60% in size
# Settings: recombinant USP1/UAF1, Ub-Rhodamine cleavage fluorescence; activity change, negative = inhibition: at 57.1 µM (top of the series)
# Procedure, shortened: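 USP1/UAF1 complex at 1 nM was preincubated with compound for 15 min at room temperature, then Ub-Rho substrate (150nM final) was added. Fluorescence (480/540 nm) was read kinetically, 6 reads every 60 seconds.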
# % is set by controls: 0 for no effect and ±100 for the full control effect; potency is the fitted concentration of half-maximal effect.
SMILES,Potency,"activity change, negative = inhibition"
CCOC(=O)c1ccccc1NS(=O)(=O)c1ccccc1,inactive,
CC(=O)C1=C(C)NC(SCC(=O)c2cc(Cl)ccc2Cl)=C(C#N)C1c1ccco1 (stereo not given),"inconclusive: 28.2 µM [inhibitor, partial curve]",
CCCCSc1nn[nH]n1,"inconclusive: 25.1 µM [inhibitor, single point]",
Cc1c(C(c2ccc(N(C)C)cc2)c2c(C)n(C)n(-c3ccccc3)c2=O)c(=O)n(-c2ccccc2)n1C,"inconclusive: 28.2 µM [inhibitor, partial curve]",
CCOC(=O)C1(Cc2ccc(Cl)cc2)CCN(Cc2cnc(N)nc2)CC1,"inconclusive: 44.7 µM [inhibitor, partial curve, poor fit]",
COc1ccc(N2CCN(C(=O)c3ccc(CS(=O)(=O)c4ccc(Br)cc4)o3)CC2)cc1,"inconclusive: 8.91 µM [inhibitor, partial curve, poor fit]",
O=C(Cn1cc(SCc2cccc(F)c2)c2ccccc21)N1CCOCC1,"inconclusive: 8.91 µM [inhibitor, partial curve, poor fit]",
CC(C)(C)C(=O)Nc1sc2c(c1C#N)CCN(Cc1ccccc1)C2,"inconclusive: 50.1 µM [inhibitor, partial curve, poor fit]",
Oc1ccccc1N1CCN(c2ncnc3scc(-c4ccccc4)c23)CC1,"inconclusive: 39.8 µM [inhibitor, partial curve, poor fit]",
CC(C)CN(Cc1c(O)ccc2c3c(c(=O)oc12)CCC3)CC(C)C,"inconclusive: 0.282 µM [inhibitor, full curve]",
Cc1c(Cl)c([N+](=O)[O-])nn1CCCC(=O)Nc1sc2c(c1C#N)CCC2,"inconclusive: 0.251 µM [inhibitor, full curve, poor fit]",
O=C1CC(/C=C/c2ccccn2)=Nc2ccccc2N1,inactive,
CC(C)C(c1nnnn1Cc1ccccc1)N1CCc2ccccc2C1 (stereo not given),"inconclusive: 25.1 µM [inhibitor, partial curve]",
c1ccc2c(-c3cc(C4CCNCC4)[nH]n3)cccc2c1,inactive,
CCN1/C(=C2\C(=O)N(C)C(=S)N2C)C=Cc2ccccc21,inactive,
CC1(C)CC(=O)C(N=Nc2ccc(-c3ccccc3)cc2)=C(O)C1,inactive,
CCOC(=O)c1ccc(N2C(=O)c3n[nH]c(-c4cccs4)c3C2c2cccc(F)c2)cc1 (stereo not given),"inconclusive: 79.4 µM [inhibitor, partial curve, poor fit]",
Cc1oc(-c2cccc(Br)c2)nc1CN1CCC(C(=O)NCCc2ccc(Cl)cc2)CC1,"inconclusive: 0.251 µM [inhibitor, full curve, poor fit]",
COC(=O)c1sc(-c2ccc(C(C)(C)C)cc2)cc1NC(=O)CSCC(=O)O,"inconclusive: 28.2 µM [inhibitor, partial curve]",
CCc1ccc(NC(=O)CC2C(=O)OCCN2CC)cc1 (stereo not given),inactive,
O=C(c1ccc2c(c1)OCCO2)N1CCCC(CNS(=O)(=O)c2cccs2)C1 (stereo not given),"inconclusive: 14.1 µM [inhibitor, partial curve, poor fit]",
Cn1cc(CN2CCN(c3ccc(Cl)cn3)CC2)c(-c2ccccc2F)n1,"inconclusive: 35.5 µM [inhibitor, single point]",

# An excerpt from above in order of heavy-atom count, smallest number first:
SMILES,Potency,"activity change, negative = inhibition"
CC(C)CN(Cc1c(O)ccc2c3c(c(=O)oc12)CCC3)CC(C)C,"inconclusive: 0.282 µM [inhibitor, full curve]",
CC(C)C(c1nnnn1Cc1ccccc1)N1CCc2ccccc2C1 (stereo not given),"inconclusive: 25.1 µM [inhibitor, partial curve]",
COc1ccc(N2CCN(C(=O)c3ccc(CS(=O)(=O)c4ccc(Br)cc4)o3)CC2)cc1,"inconclusive: 8.91 µM [inhibitor, partial curve, poor fit]",
Cc1c(C(c2ccc(N(C)C)cc2)c2c(C)n(C)n(-c3ccccc3)c2=O)c(=O)n(-c2ccccc2)n1C,"inconclusive: 28.2 µM [inhibitor, partial curve]",

# Further records:

SMILES,Potency,"activity change, negative = inhibition"
CCn1c(C)c(C)c2cc(C(=O)NCCCN3CCCC3)ccc21,"inconclusive: 39.8 µM [inhibitor, partial curve]",
Cc1[nH]c2ccccc2c1/C=C/c1cc[n+](C)cc1,"inconclusive: 25.1 µM [inhibitor, partial curve]",
CCCCN(C)S(=O)(=O)c1cc(-c2nnc3c4ccccc4c(C)nn23)ccc1C,"inconclusive: 2.24 µM [inhibitor, partial curve]",
CN(C)c1ccc(NC(=O)CCSc2nc(-c3ccco3)cc(C(F)(F)F)n2)cc1,"inconclusive: 7.94 µM [inhibitor, full curve, poor fit]",
Nc1n[nH]c2cccc(Cl)c12,inactive,
CCc1ccc(-n2nc(C)c3c(C)cc(=O)n(CC(=O)Nc4ccc(C)c(F)c4)c32)cc1,"inconclusive: 79.4 µM [inhibitor, partial curve, poor fit]",
O=C(c1ccccc1)N1CCN(c2cc(-c3ccccc3)nc3cc(-c4cccc(Cl)c4)nn23)CC1,"inconclusive: 0.282 µM [inhibitor, full curve]",
O=C(c1ccc2nc(N3CCOCC3)sc2c1)N1CCN(C(=O)c2ccco2)CC1,"inconclusive: 0.794 µM [inhibitor, full curve, poor fit]",
O=C(Nc1cccc(-c2csc(Nc3ccc(Cl)cc3)n2)c1)c1ccccc1,"inconclusive: 50.1 µM [inhibitor, partial curve, poor fit]",
O=c1oc2c(CN3CCCCC3)c(O)ccc2c2c1CCCC2,"inconclusive: 25.1 µM [inhibitor, single point]",
COc1ccc(NC(=O)CC2C(=O)N(c3ccc(C)cc3)C(=O)N2CCc2ccccc2)cc1 (stereo not given),inactive,
NC(=S)NN=C1Cc2cccc3cccc1c23,inactive,
CCCCCCCC(=O)Nc1cc(C(=O)NCCC)ccc1N1CCC2(CC1)CC(c1ccccc1)=NO2,"inconclusive: 50.1 µM [inhibitor, partial curve, poor fit]",
O=C1CC(c2nc3ccccc3n2Cc2c(F)cccc2Cl)CN1c1cccc(C(F)(F)F)c1 (stereo not given),"inconclusive: 8.91 µM [inhibitor, partial curve]",
N#Cc1nc(COc2ccccc2)oc1N1CCCCCC1,"inconclusive: 44.7 µM [inhibitor, partial curve, poor fit]",
CSc1ccccc1C(=O)OCC(=O)N1CCCCCC1,"inconclusive: 8.91 µM [inhibitor, single point]",
O=C1NC(=S)S/C1=C\c1cc(Cl)cc(Cl)c1O,"inconclusive: 35.5 µM [inhibitor, partial curve]",
COc1ccc(CN2C(=O)C(CC(=O)NCCc3ccccn3)CC(C(=O)N(C)C)=C2C)cc1 (stereo not given),"inconclusive: 0.282 µM [inhibitor, full curve, poor fit]",
CCC(C)(C)c1nnc(NC(=O)C2CCN(C(=O)c3ccco3)CC2)s1,"inconclusive: 22.4 µM [inhibitor, partial curve]",
COc1ccccc1-c1oc2ccccc2c1C#CCCO,"inconclusive: 5.62 µM [inhibitor, partial curve, poor fit]",
O=C1NC(=S)N/C1=C/c1cccc([N+](=O)[O-])c1,"inconclusive: 63.1 µM [inhibitor, partial curve, poor fit]",
Cn1sc(NC(=O)c2cccc(Cl)c2)nc1=O,inactive,

SMILES,Potency,"activity change, negative = inhibition"
Brc1ccc(-c2cc3c(N4CCN(c5ccccc5)CC4)nccn3n2)cc1,inactive,
CCN1C(=O)[C@H]2[C@@H](c3ccc(-c4ccccc4)cc3)N[C@@](C)(C(=O)OC)[C@H]2C1=O,"inconclusive: 0.282 µM [inhibitor, full curve, poor fit]",
O=C(NC1CCC(O)CC1)c1ccc(Br)o1 (stereo not given),"inconclusive: 5.01 µM [inhibitor, full curve, poor fit]",
O=S(=O)(c1cccc2cccnc12)N1CCCCC1,"inconclusive: 35.5 µM [inhibitor, partial curve]",
O=C(Nc1cccc([N+](=O)[O-])c1)Nc1ccc2c(c1)OCCO2,"inconclusive: 44.7 µM [inhibitor, partial curve, poor fit]",
c1ccc2c(N3CCCCCC3)nc(-c3ccncc3)nc2c1,"inconclusive: 44.7 µM [inhibitor, partial curve]",
O=C(CSc1nccn1-c1ccc(Cl)cc1)Nc1nc2ccccc2s1,"inconclusive: 39.8 µM [inhibitor, partial curve, poor fit]",
C=C1c2c(Cl)ccc(O)c2C(O)=C2C(=O)[C@]3(O)C(O)=C(C(N)=O)C(=O)[C@@H](N(C)C)[C@@H]3[C@@H](O)C12 (stereo not given in full),"inconclusive: 50.1 µM [inhibitor, partial curve, poor fit]",
CCCCN1C(=O)NC2NC(=O)NC21 (stereo not given),inactive,
CCOC(=O)c1[nH]c2ccccc2c1NC(=O)c1ccc(OC(C)C)cc1,"inconclusive: 0.355 µM [inhibitor, full curve, poor fit]",
COc1cc(C(=O)OCc2nc3ccsc3c(=O)[nH]2)c([N+](=O)[O-])cc1OC,inactive,
CC(C)/C=C1\CC/C(=C\c2ccc(N(C)C)cc2)C1=O,inactive,
O=C(CCN1C(=O)/C(=C/c2ccc(F)cc2)SC1=S)NC1CCS(=O)(=O)C1 (stereo not given),inactive,
COc1cccc(CNC(=O)CCc2c(C)c3cc4c(C)c(C)oc4cc3oc2=O)c1,inactive,
O=C(c1ccco1)N(Cc1ccco1)Cc1cc2ccccc2[nH]c1=O,"inconclusive: 5.01 µM [inhibitor, partial curve]",
Cn1cccc1C(=O)NC(=O)COC(=O)c1cc(S(=O)(=O)N2CCCCC2)ccc1Cl,inactive,
Cc1ccc(S(=O)(=O)c2cn(Cc3ccccc3)c3cc(N4CCCC4)c(F)cc3c2=O)cc1C,,inconclusive: -17.3% [inhibitor]
CN(CCC#N)c1ccc(/C=C(\C#N)c2ccccn2)cc1,"inconclusive: 39.8 µM [inhibitor, partial curve]",
Oc1c(Cl)cc(Cl)cc1CNc1nc2ccccc2[nH]1,inactive,
O=C1NC[C@@H](Cc2cccc3ccccc23)N(CC2CCCCC2)C1=O,"inconclusive: 89.1 µM [inhibitor, partial curve, poor fit]",
Nc1c(C(=O)NC2CC2)sc2nc3c(c(-c4ccco4)c12)CC/C3=C/c1ccco1,active: 28.2 µM,
